Laboratory results taken from patent US6361968.

Chains of the proteins cited; added tags and fusions are not shown. Residues count along the entry.
UniProt P05554, 272-358, stated change not applied: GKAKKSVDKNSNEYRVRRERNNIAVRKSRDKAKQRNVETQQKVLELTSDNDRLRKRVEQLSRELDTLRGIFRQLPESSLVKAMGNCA

Target: C/EBP bZIP domain (sequence printed as SEQ 43, described there as GCN4-C/EBP chimera) (UniProt P05554)
Test: EMSA
Details: CITED Cao et al. 1991 for Kd; binding shown in own gel shift (FIG. 14A), abolished by equimolar 3heptad-F; gel shift probe only described as 28 bp consensus; purified recombinant protein

GTCAGTCAGATTGCGCAATATCGGTCAG (double strand) [28 bp C/EBP consensus gel shift probe]
Kd: 1 nM

Construct, isoform or probe ends are uncertain for at least one entry.
